Data from publication doi:10.1101/2020.01.03.892703.

T1: biotin-tagged XPF (mouse (endogenous knock-in in MEFs)) (UniProt Q9QZD4)
T1 sequence (chain, biotin on the 15 aa tag (by the BirA ligase in vivo)): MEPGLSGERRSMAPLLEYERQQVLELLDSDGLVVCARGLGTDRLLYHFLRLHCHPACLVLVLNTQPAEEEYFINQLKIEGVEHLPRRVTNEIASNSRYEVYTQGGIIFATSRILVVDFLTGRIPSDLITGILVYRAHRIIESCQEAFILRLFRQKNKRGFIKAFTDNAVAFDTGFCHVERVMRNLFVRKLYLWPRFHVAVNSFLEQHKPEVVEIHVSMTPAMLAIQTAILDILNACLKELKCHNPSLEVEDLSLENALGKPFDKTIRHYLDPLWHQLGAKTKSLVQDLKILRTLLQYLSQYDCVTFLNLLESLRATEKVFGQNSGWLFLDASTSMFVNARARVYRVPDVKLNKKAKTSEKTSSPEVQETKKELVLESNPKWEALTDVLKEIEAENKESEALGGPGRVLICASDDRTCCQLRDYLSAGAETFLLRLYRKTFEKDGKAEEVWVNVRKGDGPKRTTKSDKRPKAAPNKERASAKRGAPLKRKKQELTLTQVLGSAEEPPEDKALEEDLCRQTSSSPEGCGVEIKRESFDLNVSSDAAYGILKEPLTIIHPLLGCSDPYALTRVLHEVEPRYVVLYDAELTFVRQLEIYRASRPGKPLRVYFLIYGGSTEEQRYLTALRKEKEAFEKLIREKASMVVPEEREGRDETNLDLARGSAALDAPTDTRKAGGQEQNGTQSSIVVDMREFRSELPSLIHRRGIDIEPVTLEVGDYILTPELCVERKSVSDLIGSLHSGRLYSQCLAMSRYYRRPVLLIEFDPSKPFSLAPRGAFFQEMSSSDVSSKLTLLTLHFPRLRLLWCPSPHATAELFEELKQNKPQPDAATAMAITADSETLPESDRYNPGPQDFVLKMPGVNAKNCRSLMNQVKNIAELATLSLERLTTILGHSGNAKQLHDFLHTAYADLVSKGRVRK

B1: RBM39 (protein, UniProt Q8VH51 1-530)
chain: MADDIDIEAMLEAPYKKDENKLNSANGHEERSKKRKKSKSRSRSHERKRSKSKERKRSRDRERKKSKSRERKRSRSKERRRSRSRSRDRRFRGRYRSPYSGPKFNSAIRGKIGLPHSIKLSRRRSRSKSPFRKDKSPVREPIDNLTPEERDARTVFCMQLAARIRPRDLEEFFSTVGKVRDVRMISDRNSRRSKGIAYVEFVDVSSVPLAIGLTGQRVLGVPIIVQASQAEKNRAAAMANNLQKGSAGPMRLYVGSLHFNITEDMLRGIFEPFGRIESIQLMMDSETGRSKGYGFITFSDSECAKKALEQLNGFELAGRPMKVGHVTERTDASSASSFLDSDELERTGIDLGTTGRLQLMARLAEGTGLQIPPAAQQALQMSGSLAFGAVAEFSFVIDLQTRLSQQTEASALAAAASVQPLATQCFQLSNMFNPQTEEEVGWDTEIKDDVIEECNKHGGVIHIYVDKNSAQGNVYVKCPSIAAAIAAVNALHGRWFAGKMITAAYVPLPTYHNLFPDSMTATQLLVPSRR
B2: NUP107 (protein, UniProt Q8BH74 1-926)
chain: MDRSGFGGMSSPVIRDAEVTRTARKHSAHKRVLIQANQEDNFGTATPRSQIIPRTPSSFRQPFVTPSSRSLLRHPDISYILGTEGRSPRHTQSSGYLGNLSMVTNLDDSNWAAAFSSQRLGLYTNTEHHSMTEDVNLSTVMLREDDPGEAASMSMFSDFLHSFLKHSSTTVFDLVEEYENICGSQVNILSKIVSRATPGLQKFSKTASMLWLLQQEMVTWRLLASLYRDRIQSSLEEENMFAIAGINASEKMVVETLFQRDSLVRQSQLVVDWLESIAKDEIGEFSDNIEFYAKSVYWENTLHSLKQRQLLSHMGSTRPLVTELDPDAPIRQKLPLDDLDREDEVRLLKYLFTLIRAGMTEEAQRLCKRCGQAWRAATLEGWKLYHDPNVNGGTELEPVEGNPYRRIWKISCWRMAEDELFNKYERAIYAALSGNLKQLLPVCDTWEDTVWAYFRVMVDSLVEQEIRTSVMTQDDSEELPREYMEANWTLEKVFEELQATDKKRVLEENQEHYHIVQKFLILGDVDGLMDEFSKWLSKSGSSLPGHLLRFMTHLILFLRTLGLQTKEEVSIEVLKTYIQLLISEKHTSLIAFYTCHLPQDLAVAQYALFLEGVTEFEQRHQCLELAKEADLDVATITKTVVENICKKDNGEFSHHDLAPSLDTGTTEEDRLKIDVIDWLVFDPAQRAEALRQGNAIMRKFLALKKHEAAKEVFVKIPQDSIAEIYNQWEEQGMESPLPAEDDNAIREHLCIRAYLEAHETFNEWFKHMNSAPQKPTLLSQATFTEKVAYEHREKKYEMDHNIWKGHLDALTADVKEKMYNVLLFVDGGWMVDVREDAEDDPERTHQMVLLRKLCLPMLCFLLHTILHSTGQYQECLQLADMVSSERHKLYLVFSKEELRKLLQKLRESSLMLLDQGLDPLGYEIQS
B3: NUP133 (protein, UniProt Q8R0G9 1-1155)
chain: MFPSVSSPRTPGPGTRRGPLVGIGPTSTPRASRRGLSLGSAVNSPVLFSPAGRRSSVSSRGTPTRIFPHHSISESVNYDVRVFGSSLPVKIMEALTMAEADEQLSVHVDEGGWACLVCTEKLLIWKIAVSPVTKLSVCKELQLPPSDFHGSADLVALSYAATSGEVHSVQAVSVMVATKEGSIRYWPSLAREDTYSDTCVDLGGEKMCRFLTAVQGGSFILSSVGSQLVRLIPESSGKIHQHVLPQGQGMLSGIGRRVSSLFGILSPTSDLMLASVLWDRGGSSFYTLTSSNISKWELDDSSEKQVHSWDVHRTLKESITDAVWGSESNYEAIKEGVNIQYLDLKQNCDGLLILAAAWHLGDSPCLVYYSVITVEDNGNQMSDAVTVEVTQYNPPFQSEDLIACRLMVPNFSSQMTYLYMENAVFVCSTGTGKFSLPQEKIVFDTQGDGILGAGSCAGVPILFSRNSGLVSVTPRENVSLLAEDLEESLTSSVGGRGSESMVFETTTKNETVAHEDKTKLLKAAFLQYCRKDLGRAQIMADELFSSHTDLDSDPELDKAVTQISVDLIDDYPASDPRWAESVPQEAPGLSNTSLIILHQLEDKMKAHCLLVDFLHQVGLFRRLSSYPIRGTPMSTRLLLCEHAEKLSAAITLKNHHSRLPDLVNSAILLALNKRECEVPNSLTPADVFFREVSQVDTICECLLEHEEQVLREVALVSQEWAEVAIDVNTVLKDMLQAATHYRLNKSSMYSQEEVLGKEPEYVPWTATSGPSGIRTAVMRQHGIILKMVYPQADSKLRNVVMEQLVALIDCFLDSYVSQLKSLEKSSDQERYSSLEVEYLQKRSELLSPLLTLGQYPWAASLAEKYCDFDILVQMCEQTDNQARLQRYMTQFADQNFSDFLFRWYLEKGKRGKLLSQPISQHGQLANFLQAHEHLSWLHEINSQELEKAHTTLLGLANMETRYFAKKKTLLGLSKLAALASDISEDRLQEKIEAMAEQERFLLHQETLPEQLLTERQLSLSAMPVLTAPQLISLYICDENRRANEYDFKKALDLLEYIDEEEDVSIDDLKLEILCRALQRDDWSGSDGKDDPIEVSKDSVFVKILQKLIKDGIQLSEYLPEVTDLLRAEQLGSLKSNSYFEFVLKANYEYYVQGQM
B4: HIST1h1a (protein, UniProt P43275 1-213)
chain: MSETAPVAQAASTATEKPAAAKKTKKPAKAAAPRKKPAGPSVSELIVQAVSSSKERSGVSLAALKKSLAAAGYDVEKNNSRIKLGLKSLVNKGTLVQTKGTGAAGSFKLNKKAESKAITTKVSVKAKASGAAKKPKKTAGAAAKKTVKTPKKPKKPAVSKKTSKSPKKPKVVKAKKVAKSPAKAKAVKPKASKAKVTKPKTPAKPKKAAPKKK
B5: CCCTC-binding factor (protein, UniProt Q61164 1-736)
chain: MEGEAVEAIVEESETFIKGKERKTYQRRREGGQEEDACHLPQNQTDGGEVVQDVNSSVQMVMMEQLDPTLLQMKTEVMEGTVAPEAEAAVDDTQIITLQVVNMEEQPINIGELQLVQVPVPVTVPVATTSVEELQGAYENEVSKEGLAESEPMICHTLPLPEGFQVVKVGANGEVETLEQGELPPQEDSSWQKDPDYQPPAKKTKKTKKSKLRYTEEGKDVDVSVYDFEEEQQEGLLSEVNAEKVVGNMKPPKPTKIKKKGVKKTFQCELCSYTCPRRSNLDRHMKSHTDERPHKCHLCGRAFRTVTLLRNHLNTHTGTRPHKCPDCDMAFVTSGELVRHRRYKHTHEKPFKCSMCDYASVEVSKLKRHIRSHTGERPFQCSLCSYASRDTYKLKRHMRTHSGEKPYECYICHARFTQSGTMKMHILQKHTENVAKFHCPHCDTVIARKSDLGVHLRKQHSYIEQGKKCRYCDAVFHERYALIQHQKSHKNEKRFKCDQCDYACRQERHMIMHKRTHTGEKPYACSHCDKTFRQKQLLDMHFKRYHDPNFVPAAFVCSKCGKTFTRRNTMARHADNCAGPDGVEGENGGETKKSKRGRKRKMRSKKEDSSDSEENAEPDLDDNEEEEEPAVEIEPEPEPQPQPPPPPQPVAPAPPPAKKRRGRPPGRTNQPKQNQPTAIIQVEDQNTGAIENIIVEVKKEPDAEPAEGEEEEAQAATTDAPNGDLTPEMILSMMDR
B6: SMC1A (protein, UniProt Q9CU62 1-1233)
chain: MGFLKLIEIENFKSYKGRQIIGPFQRFTAIIGPNGSGKSNLMDAISFVLGEKTSNLRVKTLRDLIHGAPVGKPAANRAFVSMVYSEEGAEDRTFARVIVGGSSEYKINNKVVQLHEYSEELEKLGILIKARNFLVFQGAVESIAMKNPKERTALFEEISRSGELAQEYDKRKKEMVKAEEDTQFNYHRKKNIAAERKEAKQEKEEADRYQRLKDEVVRAQVQLQLFKLYHNEVEIEKLNKELASKNKEIEKDKKRMDKVEDELKEKKKELGKMMREQQQIEKEIKEKDSELNQKRPQYIKAKENTSHKIKKLEAAKKSLQNAQKHYKKRKGDMDELEKEMLSVEKARQEFEERMEEESQSQGRDLTLEENQVKKYHRLKEEASKRAATLAQELEKFNRDQKADQDRLDLEERKKVETEAKIKQKLREIEENQKRIEKLEEYITTSKQSLEEQKKLEGELTEEVEMAKRRIDEINKELNQVMEQLGDARIDRQESSRQQRKAEIMESIKRLYPGSVYGRLIDLCQPTQKKYQIAVTKVLGKNMDAIIVDSEKTGRDCIQYIKEQRGEPETFLPLDYLEVKPTDEKLRELKGAKLVIDVIRYEPPHIKKALQYACGNALVCDNVEDARRIAFGGHQRHKTVALDGTLFQKSGVISGGASDLKAKARRWDEKAVDKLKEKKERLTEELKEQMKAKRKEAELRQVQSQAHGLQMRLKYSQSDLEQTKTRHLALNLQEKSKLESELANFGPRINDIKRIIQSREREMKDLKEKMNQVEDEVFEEFCREIGVRNIREFEEEKVKRQNEIAKKRLEFENQKTRLGIQLDFEKNQLKEDQDKVHMWEQTVKKDENEIEKLKKEEQRHMKIIDETMAQLQDLKNQHLAKKSEVNDKNHEMEEIRKKLGGANKEMTHLQKEVTAIETKLEQKRSDRHNLLQACKMQDIKLPLSKGTMDDISQEEGSSQGEESVSGSQRTSSIYAREALIEIDYGDLCEDLKDAQAEEEIKQEMNTLQQKLNEQQSVLQRIAAPNMKAMEKLESVRDKFQETSDEFEAARKRAKKAKQAFEQIKKERFDRFNACFESVATNIDEIYKALSRNSSAQAFLGPENPEEPYLDGINYNCVAPGKRFRPMDNLSGGEKTVAALALLFAIHSYKPAPFFVLDEIDAALDNTNIGKVANYIKEQSTCNFQAIVISLKEEFYTKAESLIGVYPEQGDCVISKVLTFDLTKYPDANPNPNEQ

target: T1, biotin-tagged XPF (mouse (endogenous knock-in in MEFs)); assay: affinity purification with mass spectrometry

With B1 as the binder, how does the binding read?
Its binding is “binds”.

B2 was tested. Which binding did it give?
Its binding is “binds”.

How did the binding turn out when B3 was run?
Its binding is “binds”.

Which binding does the source give for B4 here?
The binding was “binds”.

How did the binding turn out when B5 was run?
The binding was “binds”.

With B6 as the binder, how does the binding read?
Its binding is “binds”.

No constants are given. Whether binding was seen depends on the method and setting. Binding seen in cells or lysates may run through a third protein. A yes stands for co-enrichment or nearness to the bait. Other partners may have been found. Where a sequence is shown, tags or fusion partners need not be part of it.
